No constants are given. Whether binding was seen depends on the method and setting. For part of these data: Binding seen in cells or lysates may run through a third protein. Some entries that bind do so weakly or less than the wild type. For part of these data: Tags and fused reporters may be left off the sequences shown.
What was measured:
[1] = molecular target: T1, FLAG-tagged UBTOR (UniProt Q9UPX6); assay: co-IP; HEK293T cells transfected with FLAG-tagged UBTOR (or UBTOR 1-467), treated with 5 μM PAO for 15 min; lysates immunoprecipitated with anti-FLAG-M2 beads at 4°C for 4 hours, blotted for endogenous proteins
T1 sequence: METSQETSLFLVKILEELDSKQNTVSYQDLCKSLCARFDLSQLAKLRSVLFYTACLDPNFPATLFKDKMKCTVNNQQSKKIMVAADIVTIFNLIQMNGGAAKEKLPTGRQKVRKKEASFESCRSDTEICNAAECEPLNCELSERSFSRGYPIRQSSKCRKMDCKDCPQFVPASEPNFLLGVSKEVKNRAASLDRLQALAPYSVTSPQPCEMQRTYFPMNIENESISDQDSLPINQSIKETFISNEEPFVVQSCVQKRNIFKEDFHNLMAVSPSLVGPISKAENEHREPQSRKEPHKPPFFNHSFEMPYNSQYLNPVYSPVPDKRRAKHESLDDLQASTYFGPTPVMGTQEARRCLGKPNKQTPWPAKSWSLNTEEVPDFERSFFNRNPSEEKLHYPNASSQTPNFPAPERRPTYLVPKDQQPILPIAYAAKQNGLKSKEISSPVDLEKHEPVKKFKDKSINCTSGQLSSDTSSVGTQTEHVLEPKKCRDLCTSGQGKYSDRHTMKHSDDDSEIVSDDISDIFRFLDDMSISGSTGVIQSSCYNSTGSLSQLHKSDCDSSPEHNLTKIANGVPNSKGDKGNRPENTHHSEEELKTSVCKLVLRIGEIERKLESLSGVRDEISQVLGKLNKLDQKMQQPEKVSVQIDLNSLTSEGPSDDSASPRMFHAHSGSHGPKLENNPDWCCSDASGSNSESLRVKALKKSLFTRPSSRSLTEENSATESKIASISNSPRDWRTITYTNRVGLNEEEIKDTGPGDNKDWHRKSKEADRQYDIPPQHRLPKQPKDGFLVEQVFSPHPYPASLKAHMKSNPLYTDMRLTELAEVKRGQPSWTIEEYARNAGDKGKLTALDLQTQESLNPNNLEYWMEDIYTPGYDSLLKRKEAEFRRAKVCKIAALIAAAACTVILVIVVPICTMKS

Protein sequences, listed by entry. Tags and fused reporters are not part of them. Lines headed by an entry give the natural chain unless they say otherwise; changes in a name come on top. Chains listed by the source or under a name are the forms on record and can include a tag or linker. Residues count along the entry.
UniProt Q8TB45: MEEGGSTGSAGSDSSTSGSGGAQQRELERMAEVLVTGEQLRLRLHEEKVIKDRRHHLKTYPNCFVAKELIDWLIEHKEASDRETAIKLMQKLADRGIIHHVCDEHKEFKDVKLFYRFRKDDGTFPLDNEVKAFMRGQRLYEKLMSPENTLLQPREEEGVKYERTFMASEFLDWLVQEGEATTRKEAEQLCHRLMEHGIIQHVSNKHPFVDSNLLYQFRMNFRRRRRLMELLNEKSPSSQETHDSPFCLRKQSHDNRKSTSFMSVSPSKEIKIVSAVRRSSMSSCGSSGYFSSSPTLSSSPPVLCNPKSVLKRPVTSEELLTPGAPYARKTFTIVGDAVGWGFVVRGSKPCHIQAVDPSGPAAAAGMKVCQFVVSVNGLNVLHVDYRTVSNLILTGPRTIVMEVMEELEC
his/HA double tagged PDZ domain of DEPTOR: residues 330-407 of Q8TB45

[2] = molecular target: T2, N terminal region of UBTOR (UBTOR^1-467), expressed in cells (UniProt Q9UPX6); assay: co-IP; HEK293T cells transfected with FLAG-tagged UBTOR (or UBTOR 1-467), basal growth condition (vehicle DMSO, no PAO); lysates immunoprecipitated with anti-FLAG-M2 beads at 4°C for 4 hours, blotted for endogenous proteins
T2 sequence: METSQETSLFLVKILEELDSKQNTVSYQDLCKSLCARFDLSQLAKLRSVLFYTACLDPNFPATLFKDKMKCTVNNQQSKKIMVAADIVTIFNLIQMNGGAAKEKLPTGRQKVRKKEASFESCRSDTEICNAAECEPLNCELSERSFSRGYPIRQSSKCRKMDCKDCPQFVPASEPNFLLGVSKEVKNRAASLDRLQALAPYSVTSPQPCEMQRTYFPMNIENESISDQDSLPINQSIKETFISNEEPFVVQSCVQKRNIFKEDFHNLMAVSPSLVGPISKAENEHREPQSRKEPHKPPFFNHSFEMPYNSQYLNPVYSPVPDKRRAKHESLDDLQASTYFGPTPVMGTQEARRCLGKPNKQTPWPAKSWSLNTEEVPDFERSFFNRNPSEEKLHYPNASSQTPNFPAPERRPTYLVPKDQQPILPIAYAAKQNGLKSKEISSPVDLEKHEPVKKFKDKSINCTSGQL

[3] = molecular target: T1, FLAG-tagged UBTOR; assay: as above
[4] = molecular target: his/HA double tagged DEPTOR (full length) (UniProt Q8TB45); assay: pull-down; purified bacterial proteins mixed; his/HA-tagged DEPTOR proteins pulled down by nickel beads, immunoblotted; both purified
[5] = molecular target: his/HA double tagged PDZ domain of DEPTOR (UniProt Q8TB45); assay: as above
[6] = molecular target: HA-tagged DEPTOR (UniProt Q8TB45); assay: co-IP; HA-tagged DEPTOR exogenously expressed; immunoprecipitated (anti-HA beads), blotted for endogenous UBTOR

## endogenous DEPTOR (from UniProt Q8TB45 1-409)
[1]
  binding: binds
[2]
  binding: binds
[3]
  binding: binds

B1: GST-tagged UBTOR^1-467 (domain or fragment, UniProt Q9UPX6 1-467)
chain: METSQETSLFLVKILEELDSKQNTVSYQDLCKSLCARFDLSQLAKLRSVLFYTACLDPNFPATLFKDKMKCTVNNQQSKKIMVAADIVTIFNLIQMNGGAAKEKLPTGRQKVRKKEASFESCRSDTEICNAAECEPLNCELSERSFSRGYPIRQSSKCRKMDCKDCPQFVPASEPNFLLGVSKEVKNRAASLDRLQALAPYSVTSPQPCEMQRTYFPMNIENESISDQDSLPINQSIKETFISNEEPFVVQSCVQKRNIFKEDFHNLMAVSPSLVGPISKAENEHREPQSRKEPHKPPFFNHSFEMPYNSQYLNPVYSPVPDKRRAKHESLDDLQASTYFGPTPVMGTQEARRCLGKPNKQTPWPAKSWSLNTEEVPDFERSFFNRNPSEEKLHYPNASSQTPNFPAPERRPTYLVPKDQQPILPIAYAAKQNGLKSKEISSPVDLEKHEPVKKFKDKSINCTSGQL
[4]
  binding: binds
[5]
  binding: binds

B2: endogenous UBTOR (protein, UniProt Q9UPX6 1-916)
chain: METSQETSLFLVKILEELDSKQNTVSYQDLCKSLCARFDLSQLAKLRSVLFYTACLDPNFPATLFKDKMKCTVNNQQSKKIMVAADIVTIFNLIQMNGGAAKEKLPTGRQKVRKKEASFESCRSDTEICNAAECEPLNCELSERSFSRGYPIRQSSKCRKMDCKDCPQFVPASEPNFLLGVSKEVKNRAASLDRLQALAPYSVTSPQPCEMQRTYFPMNIENESISDQDSLPINQSIKETFISNEEPFVVQSCVQKRNIFKEDFHNLMAVSPSLVGPISKAENEHREPQSRKEPHKPPFFNHSFEMPYNSQYLNPVYSPVPDKRRAKHESLDDLQASTYFGPTPVMGTQEARRCLGKPNKQTPWPAKSWSLNTEEVPDFERSFFNRNPSEEKLHYPNASSQTPNFPAPERRPTYLVPKDQQPILPIAYAAKQNGLKSKEISSPVDLEKHEPVKKFKDKSINCTSGQLSSDTSSVGTQTEHVLEPKKCRDLCTSGQGKYSDRHTMKHSDDDSEIVSDDISDIFRFLDDMSISGSTGVIQSSCYNSTGSLSQLHKSDCDSSPEHNLTKIANGVPNSKGDKGNRPENTHHSEEELKTSVCKLVLRIGEIERKLESLSGVRDEISQVLGKLNKLDQKMQQPEKVSVQIDLNSLTSEGPSDDSASPRMFHAHSGSHGPKLENNPDWCCSDASGSNSESLRVKALKKSLFTRPSSRSLTEENSATESKIASISNSPRDWRTITYTNRVGLNEEEIKDTGPGDNKDWHRKSKEADRQYDIPPQHRLPKQPKDGFLVEQVFSPHPYPASLKAHMKSNPLYTDMRLTELAEVKRGQPSWTIEEYARNAGDKGKLTALDLQTQESLNPNNLEYWMEDIYTPGYDSLLKRKEAEFRRAKVCKIAALIAAAACTVILVIVVPICTMKS
[6]
  binding: binds

— article PMC6095612
